Test results taken from article doi:10.1101/2021.07.08.451586.
No constants are given. Whether binding was seen depends on the method and setting. In cells and extracts the contact can be indirect. Some entries that bind do so weakly or less than the wild type.

Amino acid sequences for entries named in this document (tags omitted).
UniProt Q15172, whole entry: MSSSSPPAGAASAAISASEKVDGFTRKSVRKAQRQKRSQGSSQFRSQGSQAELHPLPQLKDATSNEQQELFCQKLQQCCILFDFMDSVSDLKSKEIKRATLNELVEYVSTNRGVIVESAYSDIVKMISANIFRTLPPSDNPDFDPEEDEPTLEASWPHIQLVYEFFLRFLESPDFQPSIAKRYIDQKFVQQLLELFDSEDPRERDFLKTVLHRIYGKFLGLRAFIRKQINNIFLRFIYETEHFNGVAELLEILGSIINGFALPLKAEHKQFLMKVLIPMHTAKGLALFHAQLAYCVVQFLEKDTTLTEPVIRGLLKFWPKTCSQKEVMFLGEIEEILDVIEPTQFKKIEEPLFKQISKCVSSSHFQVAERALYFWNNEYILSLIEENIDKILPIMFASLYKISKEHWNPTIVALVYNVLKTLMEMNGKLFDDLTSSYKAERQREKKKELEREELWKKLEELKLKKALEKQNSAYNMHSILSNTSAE
UniProt P30153, whole entry: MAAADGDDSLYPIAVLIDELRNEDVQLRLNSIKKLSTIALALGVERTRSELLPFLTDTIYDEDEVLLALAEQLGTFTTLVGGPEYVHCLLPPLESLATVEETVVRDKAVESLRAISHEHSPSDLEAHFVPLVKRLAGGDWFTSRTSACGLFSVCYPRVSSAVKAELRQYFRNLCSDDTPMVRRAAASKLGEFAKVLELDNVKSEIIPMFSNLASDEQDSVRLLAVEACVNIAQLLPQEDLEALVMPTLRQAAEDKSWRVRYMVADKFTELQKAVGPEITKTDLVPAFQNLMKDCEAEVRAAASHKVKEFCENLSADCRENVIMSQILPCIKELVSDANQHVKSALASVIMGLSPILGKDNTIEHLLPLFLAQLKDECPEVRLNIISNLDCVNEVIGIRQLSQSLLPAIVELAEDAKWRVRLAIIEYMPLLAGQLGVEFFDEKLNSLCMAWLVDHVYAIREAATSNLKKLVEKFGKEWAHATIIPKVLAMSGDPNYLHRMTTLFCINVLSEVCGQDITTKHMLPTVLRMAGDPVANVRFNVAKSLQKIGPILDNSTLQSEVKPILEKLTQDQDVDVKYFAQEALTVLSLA

Molecular target: Strep-B56α (UniProt Q15172)
Assay: pull-down + SEC

binding: binds
Substance: MBP-PPP2R1A (from UniProt P30153 1-589)
